In publication PMC6458266:
No constants are given. Whether binding was seen depends on the method and setting. Binding seen in cells or lysates may run through a third protein. Some entries that bind do so weakly or less than the wild type. For some assays here: Sequences can lack the tags named with a protein.

Tests used:
[1] = target: T1, Flag-NEDD9 (neural precursor cell expressed developmentally downregulated protein 9) (human) (UniProt Q14511); experiment: co-IP; HEK293T cells co-transfected with HA-tagged MICAL1 and/or FLAG-tagged NEDD9; lysates incubated with antibody at 4°C for 4 h, protein A+G agarose beads, rinsed with PBS, immunoblotting
T1 sequence: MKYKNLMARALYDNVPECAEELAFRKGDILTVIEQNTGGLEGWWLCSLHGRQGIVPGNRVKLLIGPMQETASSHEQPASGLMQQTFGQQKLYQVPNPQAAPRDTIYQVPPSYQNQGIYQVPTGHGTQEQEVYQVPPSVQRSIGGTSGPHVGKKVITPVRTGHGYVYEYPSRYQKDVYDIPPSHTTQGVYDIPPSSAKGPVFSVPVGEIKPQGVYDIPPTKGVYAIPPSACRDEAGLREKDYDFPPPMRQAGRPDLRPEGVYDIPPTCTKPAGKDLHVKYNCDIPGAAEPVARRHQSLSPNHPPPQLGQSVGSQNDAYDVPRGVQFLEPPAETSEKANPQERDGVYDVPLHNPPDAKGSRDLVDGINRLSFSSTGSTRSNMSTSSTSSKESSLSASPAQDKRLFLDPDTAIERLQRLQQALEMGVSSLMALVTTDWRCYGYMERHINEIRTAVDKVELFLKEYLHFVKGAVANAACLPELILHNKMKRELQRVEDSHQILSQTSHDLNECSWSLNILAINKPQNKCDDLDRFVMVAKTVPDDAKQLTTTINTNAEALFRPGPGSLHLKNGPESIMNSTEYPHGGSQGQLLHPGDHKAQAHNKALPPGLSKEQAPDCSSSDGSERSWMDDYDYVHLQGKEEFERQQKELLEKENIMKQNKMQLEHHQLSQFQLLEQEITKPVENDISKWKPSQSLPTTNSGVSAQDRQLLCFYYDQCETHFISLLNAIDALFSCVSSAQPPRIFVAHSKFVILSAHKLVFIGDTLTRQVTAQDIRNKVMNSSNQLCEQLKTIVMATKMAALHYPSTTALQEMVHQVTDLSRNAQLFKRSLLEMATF

[2] = target: T2, endogenous NEDD9 (human (endogenous in BGC-823 and SGC-7901)) (UniProt Q14511); experiment: co-IP; endogenous proteins in BGC-823 and SGC-7901 cell lysates, with and without hypoxia (1% O2); lysates incubated with antibody at 4°C for 4 h, protein A+G agarose beads, rinsed with PBS, immunoblotting
T2 sequence: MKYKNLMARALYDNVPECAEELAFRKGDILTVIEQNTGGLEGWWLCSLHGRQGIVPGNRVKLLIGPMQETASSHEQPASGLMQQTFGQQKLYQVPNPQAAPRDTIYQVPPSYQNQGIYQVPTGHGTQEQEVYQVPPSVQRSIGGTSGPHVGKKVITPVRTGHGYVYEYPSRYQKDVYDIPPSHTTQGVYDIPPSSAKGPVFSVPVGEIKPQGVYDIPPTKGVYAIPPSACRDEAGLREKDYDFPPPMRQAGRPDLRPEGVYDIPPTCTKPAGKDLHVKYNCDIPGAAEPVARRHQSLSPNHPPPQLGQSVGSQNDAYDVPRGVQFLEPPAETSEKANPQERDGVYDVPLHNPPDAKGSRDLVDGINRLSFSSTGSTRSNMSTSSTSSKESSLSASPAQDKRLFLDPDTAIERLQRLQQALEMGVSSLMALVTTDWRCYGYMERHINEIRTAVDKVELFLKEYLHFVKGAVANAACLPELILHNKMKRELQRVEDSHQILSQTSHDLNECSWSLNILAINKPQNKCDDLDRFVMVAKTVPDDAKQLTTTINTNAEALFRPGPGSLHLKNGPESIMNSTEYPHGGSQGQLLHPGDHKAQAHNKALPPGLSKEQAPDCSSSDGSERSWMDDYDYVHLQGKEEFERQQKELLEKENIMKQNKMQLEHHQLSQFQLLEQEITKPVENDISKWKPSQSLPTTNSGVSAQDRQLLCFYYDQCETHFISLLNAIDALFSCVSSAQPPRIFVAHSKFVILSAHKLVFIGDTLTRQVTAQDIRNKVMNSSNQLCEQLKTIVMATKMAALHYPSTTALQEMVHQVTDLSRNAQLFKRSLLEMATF

Binder | binding [1] | binding [2]
HA-MICAL1 (protein, UniProt Q8TDZ2 1-1067) MASPTSTNPAHAHFESFLQAQLCQDVLSSFQELCGALGLEPGGGLPQYHKIKDQLNYWSAKSLWTKLDKRAGQPVYQQGRACTSTKCLVVGAGPCGLRVAVELALLGARVVLVEKRTKFSRHNVLHLWPFTIHDLRALGAKKFYGRFCTGTLDHISIRQLQLLLLKVALLLGVEIHWGVTFTGLQPPPRKGSGWRAQLQPNPPAQLANYEFDVLISAAGGKFVPEGFKVREMRGKLAIGITANFVNGRTVEETQVPEISGVARIYNQSFFQSLLKATGIDLENIVYYKDDTHYFVMTAKKQCLLRLGVLRQDWPDTNRLLGSANVVPEALQRFTRAAADFATHGKLGKLEFAQDAHGQPDVSAFDFTSMMRAESSARVQEKHGARLLLGLVGDCLVEPFWPLGTGVARGFLAAFDAAWMVKRWAEGAESLEVLAERESLYQLLSQTSPENMHRNVAQYGLDPATRYPNLNLRAVTPNQVRDLYDVLAKEPVQRNNDKTDTGMPATGSAGTQEELLRWCQEQTAGYPGVHVSDLSSSWADGLALCALVYRLQPGLLEPSELQGLGALEATAWALKVAENELGITPVVSAQAVVAGSDPLGLIAYLSHFHSAFKSMAHSPGPVSQASPGTSSAVLFLSKLQRTLQRSRAKENAEDAGGKKLRLEMEAETPSTEVPPDPEPGVPLTPPSQHQEAGAGDLCALCGEHLYVLERLCVNGHFFHRSCFRCHTCEATLWPGGYEQHPGDGHFYCLQHLPQTDHKAEGSDRGPESPELPTPSENSMPPGLSTPTASQEGAGPVPDPSQPTRRQIRLSSPERQRLSSLNLTPDPEMEPPPKPPRSCSALARHALESSFVGWGLPVQSPQALVAMEKEEKESPFSSEEEEEDVPLDSDVEQALQTFAKTSGTMNNYPTWRRTLLRRAKEEEMKRFCKAQTIQRRLNEIEAALRELEAEGVKLELALRRQSSSPEQQKKLWVGQLLQLVDKKNSLVAEEAELMITVQELNLEEKQWQLDQELRGYMNREENLKTAADRQAEDQVLRKLVDLVNQRDALIRFQEERRLSELALGTGAQG | binds | 
endogenous MICAL1 (protein, UniProt Q8TDZ2 1-1067) MASPTSTNPAHAHFESFLQAQLCQDVLSSFQELCGALGLEPGGGLPQYHKIKDQLNYWSAKSLWTKLDKRAGQPVYQQGRACTSTKCLVVGAGPCGLRVAVELALLGARVVLVEKRTKFSRHNVLHLWPFTIHDLRALGAKKFYGRFCTGTLDHISIRQLQLLLLKVALLLGVEIHWGVTFTGLQPPPRKGSGWRAQLQPNPPAQLANYEFDVLISAAGGKFVPEGFKVREMRGKLAIGITANFVNGRTVEETQVPEISGVARIYNQSFFQSLLKATGIDLENIVYYKDDTHYFVMTAKKQCLLRLGVLRQDWPDTNRLLGSANVVPEALQRFTRAAADFATHGKLGKLEFAQDAHGQPDVSAFDFTSMMRAESSARVQEKHGARLLLGLVGDCLVEPFWPLGTGVARGFLAAFDAAWMVKRWAEGAESLEVLAERESLYQLLSQTSPENMHRNVAQYGLDPATRYPNLNLRAVTPNQVRDLYDVLAKEPVQRNNDKTDTGMPATGSAGTQEELLRWCQEQTAGYPGVHVSDLSSSWADGLALCALVYRLQPGLLEPSELQGLGALEATAWALKVAENELGITPVVSAQAVVAGSDPLGLIAYLSHFHSAFKSMAHSPGPVSQASPGTSSAVLFLSKLQRTLQRSRAKENAEDAGGKKLRLEMEAETPSTEVPPDPEPGVPLTPPSQHQEAGAGDLCALCGEHLYVLERLCVNGHFFHRSCFRCHTCEATLWPGGYEQHPGDGHFYCLQHLPQTDHKAEGSDRGPESPELPTPSENSMPPGLSTPTASQEGAGPVPDPSQPTRRQIRLSSPERQRLSSLNLTPDPEMEPPPKPPRSCSALARHALESSFVGWGLPVQSPQALVAMEKEEKESPFSSEEEEEDVPLDSDVEQALQTFAKTSGTMNNYPTWRRTLLRRAKEEEMKRFCKAQTIQRRLNEIEAALRELEAEGVKLELALRRQSSSPEQQKKLWVGQLLQLVDKKNSLVAEEAELMITVQELNLEEKQWQLDQELRGYMNREENLKTAADRQAEDQVLRKLVDLVNQRDALIRFQEERRLSELALGTGAQG |  | binds
